Test results: paper PMC2699478
These are yes or no findings as the source states them, for the method shown. Binding seen in cells or lysates may run through a third protein. Some entries that bind do so weakly or less than the wild type.

By UniProt entry, the sequences of proteins in these tests, tags left out.
UniProt Q01196: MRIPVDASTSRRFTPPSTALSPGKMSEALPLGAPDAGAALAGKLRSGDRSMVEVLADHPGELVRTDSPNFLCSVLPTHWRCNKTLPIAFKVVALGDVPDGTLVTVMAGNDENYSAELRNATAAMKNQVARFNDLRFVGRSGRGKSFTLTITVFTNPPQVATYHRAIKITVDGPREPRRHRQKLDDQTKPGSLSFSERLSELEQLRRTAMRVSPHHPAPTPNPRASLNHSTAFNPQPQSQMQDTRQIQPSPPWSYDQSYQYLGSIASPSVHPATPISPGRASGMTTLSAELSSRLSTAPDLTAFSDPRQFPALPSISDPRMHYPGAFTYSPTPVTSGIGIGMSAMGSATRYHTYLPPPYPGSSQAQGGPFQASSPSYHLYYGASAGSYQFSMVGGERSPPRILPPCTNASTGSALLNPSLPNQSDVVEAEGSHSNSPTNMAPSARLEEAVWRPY
UniProt Q9BZS1: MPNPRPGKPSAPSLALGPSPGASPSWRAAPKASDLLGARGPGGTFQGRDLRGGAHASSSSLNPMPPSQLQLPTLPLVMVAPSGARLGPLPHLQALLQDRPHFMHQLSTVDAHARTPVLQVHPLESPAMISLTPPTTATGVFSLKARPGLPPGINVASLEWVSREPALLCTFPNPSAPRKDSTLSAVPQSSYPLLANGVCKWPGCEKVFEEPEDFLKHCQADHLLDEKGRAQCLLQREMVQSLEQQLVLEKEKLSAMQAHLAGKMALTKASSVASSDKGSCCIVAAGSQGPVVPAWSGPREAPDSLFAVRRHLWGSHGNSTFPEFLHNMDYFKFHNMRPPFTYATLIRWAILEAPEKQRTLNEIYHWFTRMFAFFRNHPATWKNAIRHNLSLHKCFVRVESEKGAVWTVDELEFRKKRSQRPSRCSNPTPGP

Target: FLAG-tagged RUNX1 (UniProt Q01196)
Assay: co-IP; HEK293T cells co-transfected with a FLAG-tagged and a non-tagged protein; lysis after 3 days in 150 mM NaCl, 50 mM Tris-HCl pH 7,5, 1% Nonidet P-40, 0,5% sodium deoxycholate; α-FLAG M2 affinity gel 2 h at 4°C, 6 washes; immunoblot with α-FOXP3 eBio7979

binding: binds
Substance: FOXP3fl (from UniProt Q9BZS1 1-431)
